Where “and” joins values, the source holds several entries; their conditions need not be identical. Equal values may be shown once. Among all 300,000 compounds or so, about 5,400 (1.8%) were called active. The inconclusive results got no clear call from the source; some entries with a clear call stand among them for comparison. The call rests on the fitted dose curve; tested in HEK293 cells. Where the call is inconclusive, the potency comes from a doubtful curve fit.
Test: qHTS for inhibitors of binding or entry into cells for Marburg Virus
Settings: Marburg virus pseudotyped entry inhibition, cell reporter; activity change, negative = inhibition: at 37.8 µM (top of the series) unless noted
On the % scale 0 is the no-effect control and ±100 the full control effect; potency means the concentration at half of the fitted maximal effect.

Compound	activity change, negative = inhibition	Potency
Cc1ccccc1-n1c(-c2ccc(Cl)cc2)cnc1SCC(=O)NC1CCS(=O)(=O)C1 (stereo unspecified)	inactive: -40.7%	
Cc1cccc(N2CCN(C(c3ccccc3)c3nnc(-c4ccccc4F)o3)CC2)c1C (stereo unspecified)	inactive: -24.1% [at 46.1 µM]	
Fc1cccc(Cl)c1CNCc1cccnc1	inactive: -14.6% [at 46.1 µM]	
CCC(C)NC(=O)C1CCCN(c2nc(C)cc(OC)n2)C1 (stereo unspecified)	inactive: -6.38%	
NS(=O)(=O)c1ccc(NC(=S)NC(=O)C2CCCCC2)cc1		inconclusive: 10 µM [activator, partial curve, poor fit]
CO/N=C/C(C#N)=C/c1cc(C(=O)c2ccccc2)cn1C		inconclusive: 35.5 µM [inhibitor, single point]
O=C(Nc1ccc2oc(-c3ccc(F)cc3)nc2c1)c1ccccc1F	inactive: 0.656%	
CCc1ccc2oc(C(=O)Nc3ccccc3OC)cc(=O)c2c1	inactive: -22.8% [at 46.1 µM]	
O=C(CSc1nnc(-c2ccccc2)c(-c2ccccc2)n1)NCC1CCCO1 (stereo unspecified)	inactive: 19.1% [at 46.1 µM]	
Fc1ccccc1-c1nc(-c2cnccc2C(F)(F)F)no1	inactive: 0.471% [at 46.1 µM]	
COc1ccc(-n2nc3ccc(NC(=O)c4c(OC)cccc4OC)cc3n2)cc1		inconclusive: 3.16 µM [activator, partial curve, poor fit]
COc1ccccc1C(O)P(=O)(OC1CCCCC1)OC1CCCCC1 (stereo unspecified)		inconclusive: 35.5 µM [inhibitor, single point]
COC(=O)c1ccc(Oc2nc(Nc3ccc(C)c(C)c3)nc(N(C)C)n2)cc1	inactive: 15.3%	
Cc1nc(CSc2ccc(Br)cc2)cs1	inactive: 3.95% [at 46.1 µM]	
CC(C)C[C@@H]1COc2cc(NC3CC3)ccc2S(=O)(=O)N1		inconclusive: 0.0112 µM [activator, full curve, poor fit]
COc1ccc(OC)c(NC(=O)Cc2csc(NC(=O)Nc3ccccc3OC)n2)c1		inconclusive: 10 µM [inhibitor, partial curve]
CC(=O)Nc1ccc(N/C=C/C(=O)c2ccco2)cc1	inactive: 5.02%	
O=C(O)CNS(=O)(=O)c1ccc(-c2ccccc2)cc1	inactive: 1.06%	
c1ccc(CN2CCN(c3nc(N4CCOCC4)c4ccccc4n3)CC2)cc1		inconclusive: 35.5 µM [inhibitor, single point]
COc1ccccc1Sc1ccccc1CC(C)N (stereo unspecified)		inconclusive: 14.1 µM [inhibitor, partial curve, poor fit]
NNC(=O)c1ccc(COc2ccc3c(c2)CCC3)cc1		inconclusive: 11.2 µM [inhibitor, single point]
COC(=O)c1ccc(Cl)cc1NC(=O)Nc1nnc(N(C)C2CCCCC2)s1	inactive: -0.66% [at 46.1 µM]	
Cn1nc(C(F)(F)F)c(C(=O)Nc2ccc(F)cc2F)c1Sc1cccc(C(F)(F)F)c1		inconclusive: 29.1 µM [inhibitor, single point]

Some values from the results shown.
Entry of `COc1ccccc1Sc1ccccc1CC(C)N` (stereo unspecified) under Potency: inconclusive: 14.1 µM [inhibitor, partial curve, poor fit]
Entry of `COc1ccccc1C(O)P(=O)(OC1CCCCC1)OC1CCCCC1` (stereo unspecified) under Potency: inconclusive: 35.5 µM [inhibitor, single point]
Entry of `NNC(=O)c1ccc(COc2ccc3c(c2)CCC3)cc1` under Potency: inconclusive: 11.2 µM [inhibitor, single point]
Entry of `Fc1cccc(Cl)c1CNCc1cccnc1` under activity change, negative = inhibition: inactive: -14.6% [at 46.1 µM]
Entry of `COc1ccc(-n2nc3ccc(NC(=O)c4c(OC)cccc4OC)cc3n2)cc1` under Potency: inconclusive: 3.16 µM [activator, partial curve, poor fit]

Later entries:

Compound	activity change, negative = inhibition	Potency
CCC1=Nc2cc(C(=O)NCCc3ccc(OC)c(OC)c3)ccc2Sc2ccccc21		inconclusive: 22.4 µM [inhibitor, single point]
CCOC(=O)c1sc(NC(=O)CSc2ncn(-c3ccccc3)n2)nc1C		inconclusive: 0.184 µM [inhibitor, full curve, poor fit]
CCc1ccc(C(=O)CC2(O)C(=O)N(CCc3ccccc3)c3ccc(Br)cc32)cc1 (stereo unspecified)		inconclusive: 11.2 µM [inhibitor, partial curve, poor fit]
COc1ccc(NC(=O)CSc2nc(-c3cccs3)cc(C(F)(F)F)n2)cc1Cl		inconclusive: 22.4 µM [inhibitor, single point]
OC(COCc1ccccc1)CN1CCN(c2ccccc2)CC1 (stereo unspecified)	inactive: 8.32% [at 46.1 µM]	
COc1ccc(N(CC(=O)NC2CCCC2)C(=O)c2ccc(N3CCCCC3)nc2)cc1	inactive: 6.04% [at 46.1 µM]	
COC(=O)c1ccccc1NC(=O)C1CCC(=O)N1S(=O)(=O)c1ccc(C)cc1 (stereo unspecified)		inconclusive: 6.51 µM [activator, partial curve, poor fit]
COc1ccccc1CNC(=S)Nc1ccc(S(N)(=O)=O)cc1		inconclusive: 0.794 µM [activator, partial curve, poor fit]
COCc1cc(C)nc(OCC(=O)N/N=C/c2ccco2)c1C#N		inconclusive: 0.1 µM [activator, partial curve, poor fit]
Cn1c(SCC(=O)Nc2ccc3nc(SCC(=O)N4CCCC4)sc3c2)nnc1-c1ccc(N)cc1	inactive: -12.3%	
COc1ccc2c(c1)CC/C2=N\OC(=O)c1cccc(C)c1		inconclusive: 6.51 µM [activator, partial curve, poor fit]
CC(C)(C)C(=O)N1CCN(C(c2ccccc2)c2ccccc2)CC1	inactive: -5.16%	
Cc1c(O)c(S(=O)(=O)c2ccccc2)c(=O)n(-c2ccccc2)c1-c1ccccc1		inconclusive: 7.94 µM [activator, partial curve, poor fit]
Cc1csc(SCC(=O)NCCc2ccc(Cl)cc2Cl)n1	inactive: 17.6%	
Cc1onc(-c2c(Cl)cccc2Cl)c1C(=O)Nn1cnnc1	inactive: 18.7%	
Cc1ccc(N2CC(C(=O)OCC(=O)c3ccc(F)cc3)CC2=O)cc1 (stereo unspecified)	inactive: -8.78% [at 46.1 µM]	
COc1cc(CN2CCCC(N3CCN(c4ccccc4C)CC3)C2)cc(Cl)c1O (stereo unspecified)		inconclusive: 22.4 µM [inhibitor, single point]
O=C(NC(=S)Nc1ccccc1Cl)c1csnn1	inactive: 23.9%	
O=c1c2cnn(-c3ccc(F)cc3)c2ncn1Cc1ccccc1Cl		inconclusive: 35.5 µM [activator, single point]
CCC1=NN(C(=O)c2ccc(Br)cc2)C(O)(c2ccc(C)cc2)C1 (stereo unspecified)		inconclusive: 5.01 µM [activator, full curve, poor fit]
CCOC(=O)c1cnc(SCc2ccc(C)cc2)nc1N	inactive: -1.68%	
COCCNC(=S)N(CCc1c(C)[nH]c2ccc(C)cc12)Cc1ccco1		inconclusive: 35.5 µM [inhibitor, single point]
O=C(CN1CCN(S(=O)(=O)c2ccc(Br)cc2)CC1)Nc1ccc2c(c1)OCCO2		inconclusive: 35.5 µM [activator, single point]
Cc1ccc(C)c(S(=O)(=O)NCc2ccc(C(=O)N3CC(C)OC(C)C3)cc2)c1 (stereo unspecified)	inactive: -9.44% [at 46.1 µM]	

Compound	activity change, negative = inhibition	Potency
CCOC(=O)COc1cc(Br)c(C2NC(=O)NC(C)=C2C(C)=O)cc1OCC (stereo unspecified)	inactive: -3.25%	
Brc1ccc(-c2nc(N/N=C/c3cccnc3)c3ccccc3n2)cc1		inconclusive: 12.6 µM [inhibitor, partial curve, poor fit]
CC(=O)Nc1ccc2c(COC(=O)[C@@H](NS(=O)(=O)c3ccc(C)cc3)C(C)C)cc(=O)oc2c1		inconclusive: 8.91 µM [inhibitor, partial curve, poor fit]
Cc1sc2ccccc2[n+]1CC(=O)O	inactive: 6.84% [at 46.1 µM]	
Cc1ccc(S(=O)(=O)NC(=O)NN2CCCCCC2)cc1		inconclusive: 708 nM [inhibitor, full curve, poor fit] and inconclusive: 2.59 µM [activator, partial curve, poor fit]
Cc1ccc(-c2cc(C(=O)Nc3c(C)n(C)n(-c4ccccc4)c3=O)no2)cc1		inconclusive: 3.55 µM [inhibitor, single point]
O=C(O)c1cccnc1Nc1ccc(Cl)cc1		inconclusive: 3.16 µM [inhibitor, full curve, poor fit]
COc1ccc(/C=C(\C#N)C(=O)Nc2cccc(C)n2)cc1	inactive: 15%	
COc1cccc(-c2csc(-c3c(N)c(C(=O)c4ccc5c(c4)OCO5)n4ccccc34)n2)c1		inconclusive: 5.62 µM [activator, single point]
CCc1ccc(C2NC(c3ccc(CC)cc3)C([N+](=O)[O-])C(C)(C)C2[N+](=O)[O-])cc1 (stereo unspecified)	inactive: -18%	
CCOc1ccc(C2C(C(=O)Nc3ccccc3)=C(C)Nc3nc(-c4ccccc4)nn32)cc1OC (stereo unspecified)	inactive: -4.62% [at 46.1 µM]	
CN(N)c1nc(N2CCCC2)nc(N2CCCC2)n1		inconclusive: 6.31 µM [inhibitor, full curve, poor fit]
COc1cccc(C(Nc2ccccn2)c2c(NC(=O)c3ccco3)sc(C)c2C)c1 (stereo unspecified)		inconclusive: 22.4 µM [inhibitor, single point]
O=C1CCc2cc(S(=O)(=O)NCCC(=O)N3CCN(c4cccc(Cl)c4)CC3)ccc2N1	inactive: -7.53%	
CN1CCN(C(CNS(=O)(=O)c2ccc([N+](=O)[O-])cc2)c2ccc(F)cc2)CC1 (stereo unspecified)		inconclusive: 14.1 µM [inhibitor, single point]
CCOC(=O)c1sc(NC(=O)c2cc3n(n2)C(C(F)(F)F)CC(c2cccs2)N3)c(C(=O)OCC)c1C (stereo unspecified)		inconclusive: 31.6 µM [activator, single point]
CC(C)OCCCNC(=O)c1ccc(CS(=O)(=O)c2cccc(C(F)(F)F)c2)o1	inactive: -0.424% [at 46.1 µM]	
Cc1cccc(/C=N/NC(=O)c2cc(Br)ccc2O)n1		inconclusive: 3.16 µM [activator, single point]
COc1ccc(NC(=O)c2ccc(-c3ccc(OC)cc3)s2)cc1	inactive: 16.2% [at 46.1 µM]	
O=C(NC1(C(F)(F)F)N=C(c2ccccc2)NC1=O)c1ccccc1F (stereo unspecified)		inconclusive: 20.6 µM [activator, partial curve, poor fit]
CC(C)(C)c1ccc(S(=O)(=O)Nc2cccc(C3OCCCO3)c2)cc1		inconclusive: 35.5 µM [inhibitor, single point]
COc1ccc2c3c(c(=O)oc2c1)[C@H]1O[C@](CCCCN2C(=O)c4ccccc4C2=O)(Cc2cc(OC)c(OC)cc21)O3		inconclusive: 5.96 µM [inhibitor, single point]
Clc1ccc(-n2cc(COCc3ccccc3)nn2)cc1		inconclusive: 0.708 µM [activator, full curve, poor fit]

From PubChem BioAssay AID540276 (National Center for Advancing Translational Sciences (NCATS), 2011)
